Literature values as cited in paper PMC9721373 (Antiviral Research, 2022).
Where a name gives a salt, the structure may show the parent alone.

Target: purified ACE2
Conditions: read-out: dissociation constant (KD); cited from earlier work

CSc1ccc2c(c1)N(CCC1CCCCN1C)c1ccccc1S2 (stereo not shown) [Thioridazine hydrochloride]
Kd: 7.88 µM
